Data reported in patent publication US20240325555A1.
No constants are given. Whether binding was seen depends on the method and setting. Some results given as binding are weak or reduced against the parent protein; the word gives no strength.

The chains behind the UniProt entries cited, without tags or fusion partners. Residues count along the entry.
UniProt Q13433, residues 29-755: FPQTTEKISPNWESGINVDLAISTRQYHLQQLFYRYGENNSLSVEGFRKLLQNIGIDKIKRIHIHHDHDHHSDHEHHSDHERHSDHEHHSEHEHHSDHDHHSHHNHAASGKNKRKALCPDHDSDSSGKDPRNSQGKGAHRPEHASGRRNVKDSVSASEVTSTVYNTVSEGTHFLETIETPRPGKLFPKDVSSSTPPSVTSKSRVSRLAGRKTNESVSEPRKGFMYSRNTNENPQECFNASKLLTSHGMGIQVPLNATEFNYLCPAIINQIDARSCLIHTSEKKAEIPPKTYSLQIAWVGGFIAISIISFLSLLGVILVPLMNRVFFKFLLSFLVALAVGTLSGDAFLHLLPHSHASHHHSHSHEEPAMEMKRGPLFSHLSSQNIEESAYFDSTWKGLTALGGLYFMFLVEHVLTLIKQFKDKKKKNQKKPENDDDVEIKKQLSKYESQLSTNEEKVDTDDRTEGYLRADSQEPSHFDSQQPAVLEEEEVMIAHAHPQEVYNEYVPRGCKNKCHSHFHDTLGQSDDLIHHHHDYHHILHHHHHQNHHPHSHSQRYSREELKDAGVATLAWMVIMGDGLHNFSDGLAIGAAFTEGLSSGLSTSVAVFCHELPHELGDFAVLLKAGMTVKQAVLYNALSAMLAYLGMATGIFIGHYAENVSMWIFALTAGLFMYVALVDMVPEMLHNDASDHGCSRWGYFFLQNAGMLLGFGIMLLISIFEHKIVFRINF

Columns and labels:
[1] = target: human LIV-1 (human) (UniProt Q13433); experiment: FACS, HEK293/H_LIV-1 cells
[2] = target: human LIV-1 (human) (UniProt Q13433); experiment: FACS, human LIV-1 expressing cells
[3] = target: human LIV-1 (human) (UniProt Q13433); experiment: FACS, HEK293/H_LIV-1 and BT20/H_LIV-1 cells

Measured: binding

B1: 290F10G10.p1.Z2 (antibody, V domains shown)
VH: EVQLVQSGAEVKKPGASVKVSCKASGYTFTSYWIHWVRQAPGQGLEWMGTIYPGDADTRSTQKFKDRVTMTADTSTSTVYMELSSLRSEDTAVYYCARSLIHDDYDKYYFDYWGQGTTVTVSS
VL: DIQMTQSPSSLSASVGDRVTITCKARQDINKYIAWYQQKPGKAPKLLIHYTSILQPGIPSRFSGSGSGRDYTFTISSLQPEDIATYYCLQYDYFFTFGGGTKVEIK
binds: all assays above
